# Test results as given in the supplement of paper PMC9744312.
# Structures can show the parent of a compound that is named as a salt. Some of the results follow. This is a noisy data set.
# System: Peyronie's disease tunica albuginea primary fibroblasts
# Assay: inhibition of TGF-beta1-induced alpha-SMA expression (myofibroblast transformation), relative to TGF-beta1-only and untreated controls; higher = stronger inhibition of myofibroblast transformation
# Settings: 10 µM; TGF-beta1 10 ng/mL; 72 h
row,SMILES,inhibition of TGF-beta1-induced alpha-SMA expression [%]
1,CCOC(=O)n1ccn(C)c1=S [Carbimazole],21.6
2,CC1(O)CCC(C(C)(C)O)CC1 (stereo unspecified) [Terpin hydrate],32.8
3,CC1(C)S[C@@H]2[C@H](NC(=O)[C@H](C(=O)O)c3ccsc3)C(=O)N2[C@H]1C(=O)O [Ticarcillin sodium],55.7
4,CN[C@H]1C(=O)N[C@@H]2Cc3ccc(cc3)Oc3cc4cc(c3O[C@@H]3O[C@H](C(=O)O)[C@@H](O)[C@H](O)[C@H]3NC(=O)CCCCCCCCC(C)C)Oc3ccc(cc3Cl)[C@@H](O)[C@@H]3NC(=O)[C@H](NC(=O)[C@@H]4NC(=O)[C@@H](NC2=O)c2cc(cc(O)c2Cl)Oc2cc1ccc2O)c1ccc(O)c(c1)-c1c(O[C@H]2O[C@H](CO)[C@@H](O)[C@H](O)[C@@H]2O)cc(O)cc1[C@@H](C(=O)NCCCN(C)C)NC3=O [Dalbavancin],42.2
5,Cc1cc(NS(=O)(=O)c2ccc(N)cc2)no1 [Sulfamethoxazole sodium],33.5
6,Cc1cc(NS(=O)(=O)c2ccc(N)cc2)no1 [Sulfamethoxazole],30.7
7,CN[C@@H]1[C@@H](O)[C@@H](O[C@@H]2[C@@H](O)[C@H](O[C@H]3OC(CN)=CC[C@H]3N)[C@@H](N)C[C@H]2N)OC[C@]1(C)O [Sisomicin sulfate],98.3
8,C[C@H](Oc1ccc(S(C)(=O)=O)cc1C(=O)N1CCN(c2ncc(C(F)(F)F)cc2F)CC1)C(F)(F)F [Bitopertin],-4.27
9,CC[C@H]1OC(=O)C[C@@H](O)[C@H](C)[C@@H](O[C@@H]2O[C@H](C)[C@@H](O[C@H]3C[C@@](C)(O)[C@@H](O)[C@H](C)O3)[C@H](N(C)C)[C@H]2O)[C@@H](CC=O)C[C@@H](C)C(=O)/C=C/C(C)=C/[C@@H]1CO[C@@H]1O[C@H](C)[C@@H](O)[C@@H](OC)[C@H]1OC [Tylosin tartrate],1.94
10,NC[C@H]1O[C@H](O[C@H]2[C@H](O)[C@@H](O[C@H]3O[C@H](CO)[C@@H](O)[C@H](N)[C@H]3O)[C@H](N)C[C@@H]2N)[C@H](O)[C@@H](O)[C@@H]1O [Kanamycin sulfate],-2.27
11,"O=C(CCCCCCC(=O)Nc1ccccc1)NO [Vorinostat (SAHA, MK0683)]",93.1
12,COC(=O)C1=C(C)NC(C)=C(C(=O)OC2CCCN(Cc3ccccc3)C2)C1c1cccc([N+](=O)[O-])c1 (stereo unspecified) [Benidipine HCl],64.1
13,CCNC(=O)CCC/C=C\C[C@@H]1[C@@H](/C=C/[C@@H](O)CCc2ccccc2)[C@H](O)C[C@@H]1O [Bimatoprost],25
14,COC(=O)N[C@H](C(=O)N1CCC[C@H]1c1nc(-c2ccc3c(c2)O[C@@H](c2ccccc2)n2c-3cc3cc(-c4c[nH]c([C@@H]5CCCN5C(=O)[C@@H](NC(=O)OC)C(C)C)n4)ccc32)c[nH]1)C(C)C [Elbasvir],16.7
15,O=C(O)c1ccc2c(c1)nc(Nc1cccc(Cl)c1)c1ccncc12 [Silmitasertib (CX-4945)],10.7
16,CC1(C)O[C@@H]2C[C@H]3[C@@H]4CCC5=CC(=O)C=C[C@]5(C)[C@H]4[C@@H](O)C[C@]3(C)[C@]2(C(=O)CO)O1 [Desonide],87.3
17,CCN(CC)C(=S)SSC(=S)N(CC)CC [Disulfiram],74.8
18,COc1cc2/c(=N/c3ccc(Br)cc3F)nc[nH]c2cc1OCC1CCN(C)CC1 [Vandetanib (ZD6474)],76.5
19,Nc1c2c(nc3ccccc13)CCCC2 [Tacrine HCl],24.3
20,CCCCC(CC)COC(=O)C(C#N)=C(c1ccccc1)c1ccccc1 (stereo unspecified) [Octocrylene],20.3
21,CN1CC(O)C2=C/C(=N/NC(N)=O)C(=O)C=C21 (stereo unspecified) [Carbazochrome],1.14

row,SMILES,inhibition of TGF-beta1-induced alpha-SMA expression [%]
1,O=c1sn(-c2cccc3ccccc23)c(=O)n1Cc1ccccc1 [Tideglusib],-10.1
2,OC[C@@H](O)[C@@H](O)[C@H](O)[C@@H](O)CO [Sorbitol],17.1
3,O=C(O)COc1nn(Cc2ccccc2)c2ccccc12 [Bendazac],3.68
4,CCCCC(=O)O[C@]1(C(=O)CO)[C@@H](C)C[C@H]2[C@@H]3CCC4=CC(=O)C=C[C@]4(C)[C@@]3(F)[C@@H](O)C[C@@]21C [Betamethasone Valerate],67.8
5,CC(=O)OCC(=O)[C@@]1(O)CC[C@H]2[C@@H]3CCC4=CC(=O)CC[C@]4(C)[C@H]3C(=O)C[C@@]21C [Cortisone acetate],12.5
6,FC(F)(F)c1ccc(/C=C/c2nc(COc3ccc(CCCCn4ccnn4)cc3)co2)cc1 [Mubritinib (TAK 165)],36.2
7,Nc1ccn(C[C@@H](CO)OCP(=O)(O)O)c(=O)n1 [Cidofovir],6.82
8,CN(C)CCCOc1nn(Cc2ccccc2)c2ccccc12 [Benzydamine HCl],-1.61
9,COc1cc2nc(N3CCN(C(=O)C4CCCO4)CC3)nc(N)c2cc1OC (stereo unspecified) [Terazosin HCl Dihydrate],20.1
10,COc1cc2nc(N3CCN(C(=O)C4CCCO4)CC3)nc(N)c2cc1OC (stereo unspecified) [Terazosin HCl],-28.7
11,Oc1ccc(O)cc1 [Hydroquinone],45.8
12,NC(=O)[C@@H]1CC[C@@H]2CN1C(=O)N2OS(=O)(=O)O [Avibactam sodium],0.177
13,C[N+]1(C)CCC(=C(c2ccccc2)c2ccccc2)CC1 [Diphemanil Methylsulfate],8.98
14,CN(C)CCC=C1c2ccccc2C=Cc2ccccc21 [Cyclobenzaprine HCl],17.2
15,CN(C)CCc1c[nH]c2ccc(C[C@H]3COC(=O)N3)cc12 [Zolmitriptan],0.111
16,O=c1[nH]c(=O)n([C@H]2C[C@H](O)[C@@H](CO)O2)cc1F [Floxuridine],-9.69
17,CNNCc1ccc(C(=O)NC(C)C)cc1 [Procarbazine HCl],14.7
18,COc1cc(C)c(/C=C/C(C)=C/C=C/C(C)=C/C(=O)O)c(C)c1C [Acitretin],-31.7
19,CC(C)OC(=O)CCC/C=C\C[C@@H]1[C@@H](CC[C@@H](O)CCc2ccccc2)[C@H](O)C[C@@H]1O [Latanoprost],50.1
20,CC(c1cc2ccccc2s1)N(O)C(N)=O (stereo unspecified) [Zileuton],45.6
21,NC(=O)c1ncn([C@@H]2O[C@H](CO)[C@@H](O)[C@H]2O)c1N [AICAR (Acadesine)],-14.6

# Single values from the entries so far:
# CNNCc1ccc(C(=O)NC(C)C)cc1 [Procarbazine HCl] | inhibition of TGF-beta1-induced alpha-SMA expression [%]: 14.7
# CC1(O)CCC(C(C)(C)O)CC1 (stereo unspecified) [Terpin hydrate] | inhibition of TGF-beta1-induced alpha-SMA expression [%]: 32.8
# FC(F)(F)c1ccc(/C=C/c2nc(COc3ccc(CCCCn4ccnn4)cc3)co2)cc1 [Mubritinib (TAK 165)] | inhibition of TGF-beta1-induced alpha-SMA expression [%]: 36.2
# Cc1cc(NS(=O)(=O)c2ccc(N)cc2)no1 [Sulfamethoxazole] | inhibition of TGF-beta1-induced alpha-SMA expression [%]: 30.7
# COc1cc2nc(N3CCN(C(=O)C4CCCO4)CC3)nc(N)c2cc1OC (stereo unspecified) [Terazosin HCl Dihydrate] | inhibition of TGF-beta1-induced alpha-SMA expression [%]: 20.1

# (list continues)

row,SMILES,inhibition of TGF-beta1-induced alpha-SMA expression [%]
1,CCC(=O)O[C@H]1[C@H](O[C@@H]2[C@@H](C)[C@H](O[C@H]3C[C@@](C)(OC)[C@@H](O)[C@H](C)O3)[C@@H](C)C(=O)O[C@H](CC)[C@@](C)(O)[C@H](O)[C@@H](C)C(=O)[C@H](C)C[C@@]2(C)O)O[C@H](C)C[C@@H]1N(C)C [Erythromycin estolate],69.3
2,CCn1cc(C(=O)O)c(=O)c2cc(F)c(N3CCN(C)CC3)cc21 [Pefloxacin Mesylate],-2.54
3,CCn1cc(C(=O)O)c(=O)c2cc(F)c(N3CCN(C)CC3)cc21 [Pefloxacin Mesylate Dihydrate],-2.68
4,C[C@@H]1O[C@@H]1P(=O)(O)O [Fosfomycin Tromethamine],2.16
5,C[C@@H]1O[C@@H]1P(=O)(O)O [Fosfomycin Disodium],-7.23
6,C[C@@H]1CN(c2c(F)c(N)c3c(=O)c(C(=O)O)cn(C4CC4)c3c2F)C[C@H](C)N1 [Sparfloxacin],14
7,CC1(C)[C@@H](O[C@H]2O[C@H](C(=O)O)[C@@H](O)[C@H](O)[C@H]2O[C@@H]2O[C@H](C(=O)O)[C@@H](O)[C@H](O)[C@H]2O)CC[C@]2(C)[C@H]3C(=O)C=C4[C@@H]5C[C@@](C)(C(=O)O)CC[C@]5(C)CC[C@@]4(C)[C@]3(C)CC[C@@H]12 [Ammonium Glycyrrhizinate],2.43
8,CCOC(=O)CCC(=O)O[C@H]1[C@H](O[C@@H]2[C@@H](C)[C@H](O[C@H]3C[C@@](C)(OC)[C@@H](O)[C@H](C)O3)[C@@H](C)C(=O)O[C@H](CC)[C@@](C)(O)[C@H](O)[C@@H](C)C(=O)[C@H](C)C[C@@]2(C)O)O[C@H](C)C[C@@H]1N(C)C [Erythromycin Ethylsuccinate],4.38
9,C[C@]12C=CC(=O)C=C1CC[C@@H]1[C@@H]2C(=O)C[C@@]2(C)[C@H]1CC[C@]2(O)C(=O)CO [Prednisone],19.1
10,CS(=O)(=O)Nc1ccc([N+](=O)[O-])cc1Oc1ccccc1 [Nimesulide],20.8
11,CCn1cc(C(=O)O)c(=O)c2cc(F)c(N3CCNC(C)C3)c(F)c21 (stereo unspecified) [Lomefloxacin HCl],4.14
12,CCn1cc(C(=O)O)c(=O)c2cc(F)c(N3CCNC(C)C3)c(F)c21 (stereo unspecified) [Lomefloxacin],24.8
13,CNC(=C[N+](=O)[O-])NCCSCc1csc(CN(C)C)n1 [Nizatidine],8.5
14,OCc1ccccc1 [Benzyl alcohol],-23.8
15,CCC1=C[C@@H]2CN(C1)Cc1c([nH]c3ccccc13)[C@@](C(=O)OC)(c1cc3c(cc1OC)N(C)[C@H]1[C@@](O)(C(=O)OC)[C@H](OC(C)=O)[C@]4(CC)C=CCN5CC[C@]31[C@@H]54)C2 [Vinorelbine Tartrate],90.6
16,CC(C)CN(C[C@@H](O)[C@H](Cc1ccccc1)NC(=O)O[C@H]1CCOC1)S(=O)(=O)c1ccc(N)cc1 [Amprenavir],4.91
17,CNCCC=C1c2ccccc2CCc2ccccc21 [Nortriptyline hydrochloride],56
18,C[C@H]1[C@H](NC(=O)/C(=N\OC(C)(C)C(=O)O)c2csc(N)n2)C(=O)N1S(=O)(=O)O [Aztreonam],-1.65
19,CCc1c2c(nc3ccc(OC(=O)N4CCC(N5CCCCC5)CC4)cc13)-c1cc3c(c(=O)n1C2)COC(=O)[C@]3(O)CC [Irinotecan HCl Trihydrate],61.9
